Laboratory results as given in PMC13260904.
Results are given in words; binding and its absence hold for the method and conditions named. Binding seen in cells or lysates may run through a third protein. Some results given as binding are weak or reduced against the parent protein; the word gives no strength.

By UniProt entry, the sequences of proteins in these tests, tags left out.
UniProt Q13541: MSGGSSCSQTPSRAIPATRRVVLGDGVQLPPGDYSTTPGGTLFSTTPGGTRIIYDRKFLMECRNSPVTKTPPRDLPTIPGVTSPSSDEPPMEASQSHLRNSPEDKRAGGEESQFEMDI

Target: myc-CUL3 (UniProt Q13618)
Assay: co-IP; SIRT2 knockdown HEK293T transfected with myc-CUL3 and Flag-4E-BP1 WT or K69R; MG132 for 3 h; freeze-thaw lysis in 50 mM Tris-HCl, 100 mM KCl, pH 7.5; anti-Myc antibody at 4 °C for 3 h, then protein A/G magnetic beads for 1 h; western blot

In the case of “Flag-tagged 4E-BP1 (from UniProt Q13541 1-118)”, the binding is reported as “binds”.
